PubChem BioAssay AID504791 | Drosophila RNAi Screening Center | 2011
Aim: 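Genes of the fly required for silencing by miRNA, siRNA or endo-siRNA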 (primary screen). System: Drosophila S2-derived reporter cells. Reagents: long dsRNA against Drosophila genes, about 150-250 ng dsRNA per well (siRNA assay); about 80-120 ng (miRNA assay). Duration: about 5 days (siRNA assay); about 4 days (miRNA assay). Conditions: copper sulfate induction of reporters: 25 µM (siRNA assay); 200 mM stated (miRNA assay), 1-2 days before reading. Read-out: 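Dual luciferase assay: Renilla to firefly signal ratio in each well, scaled to the mean ratio of its plate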. Scale: siRNA reporter hit score: higher = 3 marks a strong hit with raised ratio; -3 a strong hit with lowered ratio. Active means: 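First-pass picks had plate-scaled ratios over 1.5 for the siRNA assay, over 1.6 for the miRNA assay, or under 0.6; two distinct dsRNAs had to score alike on retest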.
In all, the deposit lists about 23,000 reagents; shown is an unselected part of those that have a named target and a result. Of all reagents, 199 (0.86%) were called active. 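Plate-scaled ratios behind the calls are not deposited; printed light signals are raw; many rows marked increased or decreased are still called inactive.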 A plus sign joins genes that one reagent is predicted to hit.

| Target gene | dsRNA | siRNA reporter hit score | stable siRNA reporter change | miRNA reporter change | stable assay Renilla, run 1 (luminescence) | stable assay firefly, run 1 (luminescence) | Outcome |
| --- | --- | --- | --- | --- | --- | --- | --- |
| CG17717 | DRSC18130 | – | – | – | 5286 | 3.11e5 | inactive |
| Acsx4 | DRSC14311 | – | – | – | 7426 | 3.05e5 | inactive |
| CG30492 (retired record) + M7BP | DRSC05053 | – | – | – | 5523 | 4.27e5 | inactive |
| CG30492 (retired record) + M7BP | DRSC05054 | – | – | – | 5427 | 4.74e5 | inactive |
| CG30492 (retired record) + M7BP | DRSC05055 | – | – | – | 6812 | 5.49e5 | inactive |
| CG30492 (retired record) + M7BP | DRSC06701 | – | – | – | 5908 | 3.03e5 | inactive |
| CG30492 (retired record) + M7BP | DRSC06816 | – | – | – | 6500 | 3.44e5 | inactive |
| IntS2 | DRSC20094 | -3 | – | – | 12969 | 9.36e5 | inactive |
| fs(1)h | DRSC18778 | – | – | – | 4831 | 4.39e5 | inactive |
| CG6357 | DRSC06979 | – | – | – | 8114 | 4.12e5 | inactive |
| Syx8 | DRSC10402 | – | – | – | 5083 | 4.88e5 | inactive |
| Syx8 | DRSC22498 | – | – | – | 4956 | 3.65e5 | inactive |
| Cyp313a4 | DRSC16627 | – | – | – | 6739 | 4.07e5 | inactive |
| CG3534 | DRSC15494 | – | – | – | 7466 | 3.75e5 | inactive |
| CG11790 | DRSC14390 | – | – | – | 12256 | 4.52e5 | inactive |
| CG3009 | DRSC18263 | – | – | – | 9358 | 4.94e5 | inactive |
| CG14420 | DRSC17917 | – | – | – | 6930 | 4.18e5 | inactive |
| CG14507 | DRSC14859 | – | – | – | 5999 | 3.46e5 | inactive |
| CG5561 | DRSC00688 | – | – | – | 7066 | 4.18e5 | inactive |
| mthl2 | DRSC10287 | – | – | – | 6487 | 3.58e5 | inactive |
| ND-51L1 | DRSC06072 | – | – | – | 5944 | 2.55e5 | inactive |
| CG11588 | DRSC09145 | – | – | – | 4839 | 3.03e5 | inactive |
| CG11588 | DRSC09846 | – | – | – | 7364 | 5.99e5 | inactive |
| BomS1 | DRSC22678 | – | – | – | 5219 | 5.40e5 | inactive |
| CG11145 | DRSC06049 | – | – | – | 5935 | 3.56e5 | inactive |
| pkaap | DRSC01925 | – | – | – | 6812 | 3.91e5 | inactive |
| dpr3 | DRSC00395 | – | – | – | 7939 | 5.06e5 | inactive |
| dpr3 | DRSC00396 | -3 | reporter ratio raised past the hit cutoff | reporter ratio raised past the hit cutoff | 12840 | 3.92e5 | inactive |
| dpr3 | DRSC21369 | – | – | – | 7179 | 2.86e5 | inactive |
| COX6AL | DRSC21454 | – | – | – | 4087 | 4.51e5 | inactive |
| Tango8 | DRSC06474 | – | – | reporter ratio lowered past the hit cutoff | 5183 | 4.77e5 | inactive |
| CG17486 | DRSC07752 | – | – | – | 7433 | 2.96e5 | inactive |
| I-3 | DRSC20479 | – | – | – | 6218 | 4.09e5 | inactive |
| amx | DRSC18736 | – | – | – | 5160 | 3.96e5 | inactive |
